Results as given in patent publication CN114573694A.
Results are given in words; binding and its absence hold for the method and conditions named. Some entries that bind do so weakly or less than the wild type. Where a sequence is shown, tags or fusion partners need not be part of it.

Molecular target: T1, IL13Rα2 antigen without His tag, expressed from pMAL (IL13Rα2-W/O-HIS) (human) (UniProt Q14627)
T1 sequence (looked up): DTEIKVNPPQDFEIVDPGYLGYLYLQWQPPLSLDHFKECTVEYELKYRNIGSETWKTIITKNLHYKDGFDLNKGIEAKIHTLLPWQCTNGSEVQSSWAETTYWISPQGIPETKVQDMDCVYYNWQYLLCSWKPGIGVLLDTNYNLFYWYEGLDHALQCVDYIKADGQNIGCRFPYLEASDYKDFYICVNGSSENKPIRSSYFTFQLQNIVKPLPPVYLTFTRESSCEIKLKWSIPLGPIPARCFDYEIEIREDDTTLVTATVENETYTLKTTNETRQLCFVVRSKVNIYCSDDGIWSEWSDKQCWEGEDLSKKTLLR
Experiment: Western blot, mAb15D8 as first antibody

binding: binds
B1: anti-IL13Rα2 monoclonal antibody mAb15D8 (mouse, from hybridoma) (antibody, mouse IgG1, kappa, V domains shown)
VH: QVTLKESGPGILQPSQTLSLTCSFSGFSLSPSGMGVSWIRQPSGKGLEWLAHIYWDDDKLYNPSLKSRLTISKDTSSNQVFLKITSVDTADTATYYCARRGLRLRAMDYWGQGTSVTVSS
VL: DIVLTQSPASLAVSLGQRATISCRASESVDSYGNSFMHWYQQKPGQPPKLLIYRTSNLESGIPARFSGSGSRTDFTLTINPVEADDVATYYCQQSNEDPFTFGSGTKLEIKR
